At least one structure is not confirmed: it was looked up by name or label, or the drawing left a doubt.
Tests used:
P70 S6 kinase = assay: Western blot of phospho-p70 S6 kinase T389 in A549 cells; format: cell-based, human; conditions: for phosphorylation of P70 S6 kinase (pS6K T389): A549 cells, 100 mcM LY303511, rapamycin 200 ng/ml or wortmannin for 1 hour before LPS/IFN-γ, Western blot
Description: A549 cells were treated without or with 100 mcM LY303511, 200 ng/ml rapamycin, or 50 nM wortmannin in serum free media for 1 hour before addition of E. coli lipopolysaccharide (LPS), […] and interferon (IFN)-γ, 100 U/ml (LPS/IFN-γ or “L/I”). Cells were homogenized and the indicated proteins (see Table 1) were detected by Western blot. Western blots are from the same experiment, and representative of three experiments.
In another experiment, A549 cells were grown to sub-confluence in serum-containing media, and incubated with a vehicle, 100 mcM LY303511, or rapamycin, 200 ng/ml for 0, 12, or 24 hours. Cells were lysed, and proteins separated by SDS-PAGE before transfer to nitrocellulose membranes. Membranes were incubated with antibodies against p27Kip1, p21 Cip1 orphospho-P70 S6 kinase T389.
Measurement of protein phosphorylation: A549 cells were incubated in serum-free medium without or with inhibitors for 1 hour, as indicated, before incubation for 30 minutes with a mixture of LPS, 100 μg/ml (Sigma; St. Louis, Mo.) and IFN-γ, 100 U/ml (Roche; Nutley, N.J.). PASM cells were incubated in serum-free medium without or with inhibitors for 24 h as indicated, before incubation for 30 min with 10% FBS. A549 or PASM cells were washed once with cold PBS and incubated for 15 minutes on ice ih lysis buffer (20 mM Tris pH 8.0, 1% Nonidet P-40, 1 mM EDTA, 5 mM benzamidine, aprotinin, 10 μg/ml, leupeptin, 10 μg/ml, trypsin soybean inhibitor, 1 mM PMSF, 50 mM sodium fluoride, 100 μM sodium orthovanadate, and 1: 100 Sigma phosphatase inhibitor set I containing cantharidin, microcystin LR and bromotetramizole). After freezing and thawing, lysates were centrifuged for 30 min at 16,000×g before protein measurement and storage at −80° C. Equal amounts of total protein were separated by SDS-PAGE, and transferred to a nitrocellulose membrane, before immunoblotting with primary antibodies as indicated. […] Integrated band densities were quantified using Scion Image beta 3b software.

Chains of the proteins cited; added tags and fusions are not shown.
UniProt P68400, whole entry: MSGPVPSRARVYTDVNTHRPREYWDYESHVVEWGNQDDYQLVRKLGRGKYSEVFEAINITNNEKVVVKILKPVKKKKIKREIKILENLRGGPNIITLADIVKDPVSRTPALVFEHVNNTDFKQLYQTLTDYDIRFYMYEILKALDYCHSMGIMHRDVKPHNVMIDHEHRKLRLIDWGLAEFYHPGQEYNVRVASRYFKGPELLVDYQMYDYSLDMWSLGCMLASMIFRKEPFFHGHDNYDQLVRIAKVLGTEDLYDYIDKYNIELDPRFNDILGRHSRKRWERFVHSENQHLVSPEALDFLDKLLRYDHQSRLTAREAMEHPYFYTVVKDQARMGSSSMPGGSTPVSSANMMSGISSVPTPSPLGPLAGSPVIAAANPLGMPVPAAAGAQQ

recombinant CK2 = biological target: T1, recombinant CK2 (Homo sapiens, UniProt P68400); assay: Casein kinase 2 activity kit, 32P incorporation into substrate peptide; format: biochemical; conditions: 100 ng recombinant CK2; 10 min at 30° C.
T1 construct: purchased Upstate Biotechnology 17-132 (number of the activity kit, not of the enzyme)
Description: FIGS. 5A-5B are bar graphs showing that LY303511 inhibits the cell cycle by causing combined G1 and G2/M arrest and that LY303511 inhibits CK2 activity. For the data shown in FIG. 5A, PASM cells were cultured in medium with FBS for 48 hours before the addition of 0-100 μM LY303511 without or with raparnycin, 400 ng/ml, for 24 hours. Cells were then harvested and incubated with propidium iodide for 2 hours before counting using a Becton-Dickson FACSCalibur. Data are the means (±SEM) of percentages of cells in G1, S, or G2/M phase of the cell cycle in three experiments with duplicate assays. *p<0.05 vs. DMSO control, or †p<0.05 vs. 10 μM LY303511, by Student's t—test. FIG. 5B is a bar graph showing that LY303511 or LY294002 inhibits CK2 in vitro. As per the manufacturer (Upstate Biotechnologies), 0 or 100 ng of recombinant CK2 were incubated with CK2 substrate peptide and ^32P-γ-ATP for 10 min with 1% DMSO or inhibitors as indicated. Data are the means of values for samples with inhibitors expressed as percentage of that for control, which was (mean±SEM) 0.2±0.03 pmol phosphate/100 ng protein/10 min. […]
One specific assay for casein kinase 2 activity is available commercially as a kit from Upstate Biotechnology (New York). […] The phosphorylated substrate is then separated from the residual ^32P-ATP using P81 phosphocellulose paper, and quantified by scintillation counting. […]

| Structure (SMILES) | phosphorylation of P70 S6 kinase at T389 (P70 S6 kinase; A549 cells in serum-containing media, 100 mcM LY303511 or rapamycin 200 ng/ml, 12 and 24 hours) | phosphorylation of P70 S6 kinase (pS6K T389) (P70 S6 kinase) | CK2 activity (recombinant CK2) |
| --- | --- | --- | --- |
| CO[C@H]1C[C@@H]2CC[C@@H](C)[C@@](O)(O2)C(=O)C(=O)N2CCCC[C@H]2C(=O)O[C@H]([C@H](C)C[C@@H]2CC[C@@H](O)[C@H](OC)C2)CC(=O)[C@H](C)/C=C(\C)[C@@H](O)[C@@H](OC)C(=O)[C@H](C)C[C@H](C)/C=C/C=C/C=C/1C [rapamycin, reference compound] | blocked phosphorylation of P70 S6 kinase at T389 | also blocked phosphorylation | Neither wortmannin nor rapamycin affected CK2 activity |
| COC[C@H]1OC(=O)c2coc3c2[C@@]1(C)C1=C(C3=O)[C@@H]2CCC(=O)[C@@]2(C)C[C@H]1OC(C)=O [wortmannin] |  | also blocked phosphorylation | Neither wortmannin nor rapamycin affected CK2 activity |

From patent publication US8044057B2, “Methods for suppressing an immune response or treating a proliferative disorder” (The United States of America as represented by the …, priority 2003, dated 2011)
